This passage reports normalized intracellular growth results from the supplement of paper PMC6331611.

± gives the standard deviation of the averaged measurements. In all, about 1,600 compounds were measured (“normalized intracellular growth (luminescence, IQM-normalized) in RAW264.7 macrophages”: median about 1, lowest 2% from about 0.43 on). The list shows a part of the results.

For this experiment, the system named is Salmonella enterica serovar Typhimurium SL1344. Nature of the experiment: normalized intracellular growth (luminescence, IQM-normalized) in RAW264.7 macrophages (fraction of plate interquartile mean); higher = more bacterial growth (less inhibition). Conditions: 10 µM.

For the molecule `CC(=O)OCC(=O)[C@H]1CC[C@H]2[C@@H]3CCC4=CC(=O)CC[C@]4(C)[C@H]3CC[C@]12C`, the normalized intracellular growth runs as follows: (time point: T3 (3 h)) 1.06 ± 0.031; (time point: Tfinal (~6 h)) 0.99 ± 0.08.
As for `CC(CN(C)C)CN1c2ccccc2Sc2ccccc21` (stereo not given), the normalized intracellular growth was found to be 0.801 ± 0.019 (time point: T3 (3 h)) and 0.986 ± 0.078 (time point: Tfinal (~6 h)).
For `CC1(C)[C@@H](OC(=O)CCC(=O)O)CC[C@]2(C)[C@H]3C(=O)C=C4[C@@H]5C[C@@](C)(C(=O)O)CC[C@]5(C)CC[C@@]4(C)[C@]3(C)CC[C@@H]12` the same measures were 1.09 ± 0.057 and 0.837 ± 0.2.
For `N=C(N)NCCN1CCCCCCC1`, the normalized intracellular growth is, setting by setting: (time point: T3 (3 h)) 0.941 ± 0.024; (time point: Tfinal (~6 h)) 0.988 ± 0.036.
On to `CC(C)CCCC(C)NC(C)C` (stereo not given), for which the normalized intracellular growth reads like this: (time point: T3 (3 h)) 1 ± 0.017; (time point: Tfinal (~6 h)) 0.999 ± 0.11.
In the case of `C#C[C@]1(O)CC[C@H]2[C@@H]3CCC4=CC(=O)CC[C@@H]4[C@H]3CC[C@@]21CC`, the normalized intracellular growth is 1.03 ± 0.14 (time point: T3 (3 h)) and 1.13 ± 0.12 (time point: Tfinal (~6 h)).
On the same counts, the results for `NC(=O)NS(=O)(=O)c1ccc(N)cc1` are 0.98 ± 0.031 and 0.881 ± 0.095.
For `CC(=O)N(CC(O)CN(C(C)=O)c1c(I)c(C(=O)NCC(O)CO)c(I)c(C(=O)NCC(O)CO)c1I)c1c(I)c(C(=O)NCC(O)CO)c(I)c(C(=O)NCC(O)CO)c1I` (stereo not given) the same measures were 1.04 ± 0.031 and 0.951 ± 0.037.
For `c1ccc(CN(CC2=NCCN2)c2ccccc2)cc1` the same measures were 0.992 ± 0.011 and 0.982 ± 0.055.
On to `COc1cc(/C=C/C(=O)N2CCCCCCC2)cc(OC)c1OC`, for which the normalized intracellular growth runs as follows: (time point: T3 (3 h)) 1.08 ± 0.016; (time point: Tfinal (~6 h)) 0.924 ± 0.085.
On the same counts, the results for `CNC(=N)NCCC[C@H](N)C(=O)O` are 1.11 ± 0.029 and 0.921 ± 0.26.
For `Cc1cc(-c2ccc(/N=N/c3ccc4c(S(=O)(=O)O)cc(S(=O)(=O)O)c(N)c4c3O)c(C)c2)ccc1/N=N/c1ccc2c(S(=O)(=O)O)cc(S(=O)(=O)O)c(N)c2c1O` the same measures were 1.06 ± 0.038 and 1.36 ± 0.084.
On the same counts, the results for `C=CCSCC1Nc2cc(Cl)c(S(N)(=O)=O)cc2S(=O)(=O)N1` (stereo not given) are 1.07 ± 0.037 and 1.08 ± 0.043.
For the molecule `O=C(/C=C/C=C/c1ccc2c(c1)OCO2)N1CCCCC1`, the normalized intracellular growth reads like this: (time point: T3 (3 h)) 1.04 ± 0.069; (time point: Tfinal (~6 h)) 0.974 ± 0.05.
On the same counts, the results for `CCC(=O)OCC(=O)[C@@]1(OC(=O)CC)[C@@H](C)C[C@H]2[C@@H]3CCC4=CC(=O)C=C[C@]4(C)[C@@]3(Cl)[C@@H](O)C[C@@]21C` are 0.976 ± 0.026 and 0.962 ± 0.086.
On the same counts, the results for `CCN(CC)Cc1cc(Nc2ccnc3cc(Cl)ccc23)ccc1O` are 0.983 ± 0.033 and 1.1 ± 0.075.
On the same counts, the results for `COc1ccccc1N1CCN(CCCNc2cc(=O)n(C)c(=O)n2C)CC1` are 0.98 ± 0.024 and 0.983 ± 0.23.
For `CC(C)NCC(O)c1cc(O)cc(O)c1` (stereo not given), the normalized intracellular growth amounted to 1.06 ± 0.025 (time point: T3 (3 h)) and 0.981 ± 0.077 (time point: Tfinal (~6 h)).
As for `O=C(O)CN(CCN(CC(=O)O)CC(=O)O)CCN(CC(=O)O)CC(=O)O`, the normalized intracellular growth reads like this: (time point: T3 (3 h)) 1.11 ± 0.05; (time point: Tfinal (~6 h)) 1.04 ± 0.039.
On the same counts, the results for `C#CCN(C)CCCOc1ccc(Cl)cc1Cl` are 1.06 ± 0.13 and 1.18 ± 0.096.
For `C[n+]1ccccc1/C=N/O` the same measures were 1.04 ± 0.036 and 0.938 ± 0.23.
For `Cc1cccc(Nc2ccccc2C(=O)O)c1C` the same measures were 0.984 ± 0.05 and 1.03 ± 0.097.
As to `CCC(C)n1ncn(-c2ccc(N3CCN(c4ccc(OCC5COC(Cn6cncn6)(c6ccc(Cl)cc6Cl)O5)cc4)CC3)cc2)c1=O` (stereo not given), the normalized intracellular growth is, setting by setting: (time point: T3 (3 h)) 1 ± 0.06; (time point: Tfinal (~6 h)) 1.12 ± 0.11.
For `O=C(O)CCNC(=O)c1ccc(/N=N/c2ccc(O)c(C(=O)O)c2)cc1` the same measures were 0.986 ± 0.04 and 0.804 ± 0.092.
On the same counts, the results for `C[C@H]1[C@H](OC(=O)CCC(=O)O)O[C@@H]2O[C@@]3(C)CC[C@H]4[C@H](C)CC[C@@H]1[C@@]24OO3` are 0.899 ± 0.045 and 0.869 ± 0.028.
`CC(N)C(=O)OC(C)(C)Cc1ccc(Cl)cc1` (stereo not given): the normalized intracellular growth reads like this: (time point: T3 (3 h)) 1.15 ± 0.072; (time point: Tfinal (~6 h)) 1.46 ± 0.051.
On the same counts, the results for `CC[n+]1c(-c2ccccc2)c2cc(N)ccc2c2ccc(N)cc21` are 0.993 ± 0.05 and 1.13 ± 0.11.
On the same counts, the results for `O=C1OC(CN2CCOCC2)CN1/N=C/c1ccc([N+](=O)[O-])o1` (stereo not given) are 1.08 ± 0.1 and 0.97 ± 0.43.
For the molecule `CNCCCN1c2ccccc2CCc2ccccc21`, the normalized intracellular growth (time point: T3 (3 h)) is 1.075 ± 0.0098 and the normalized intracellular growth (time point: Tfinal (~6 h)) is 1.04 ± 0.061.
For `O=C1CCC(N2C(=O)c3ccccc3C2=O)C(=O)N1` (stereo not given), the normalized intracellular growth is, setting by setting: (time point: T3 (3 h)) 0.966 ± 0.11; (time point: Tfinal (~6 h)) 1.21 ± 0.21.
On the same counts, the results for `CC(=O)OCC1=C(C(=O)O)N2C(=O)[C@@H](NC(=O)Cc3cccs3)[C@H]2SC1` are 0.979 ± 0.037 and 1.01 ± 0.027.
`CCOc1ccc(NC(=O)CC(C)O)cc1` (stereo not given) gave a normalized intracellular growth (time point: T3 (3 h)) of 0.969 ± 0.045 and a normalized intracellular growth (time point: Tfinal (~6 h)) of 1.202 ± 0.0076.
For `CCN(CC)CCNC(=O)COc1ccc(OC)cc1` the same measures were 1.04 ± 0.043 and 0.942 ± 0.14.
With `Cc1nc2n(c(=O)c1CCN1CCC(c3noc4cc(F)ccc34)CC1)CCCC2O` (stereo not given), the normalized intracellular growth by setting is: (time point: T3 (3 h)) 0.996 ± 0.04; (time point: Tfinal (~6 h)) 0.965 ± 0.023.
On the same counts, the results for `C=CCCCCCCCCC(=O)O` are 0.9889 ± 0.0075 and 0.751 ± 0.22.
For `CC1(C)S[C@@H]2[C@H](NC(=O)Cc3ccccc3)C(=O)N2[C@H]1C(=O)O` the same measures were 0.828 ± 0.13 and 1.35 ± 0.094.
On the same counts, the results for `CCCCc1nc(Cl)c(CO)n1Cc1ccc(-c2ccccc2-c2nnn[nH]2)cc1` are 0.909 ± 0.056 and 0.215 ± 0.0058.
For `Cc1cc2nc3c(=O)[nH]c(=O)nc-3n(CC(O)C(O)C(O)COP(=O)(O)O)c2cc1C` (stereo not given), the normalized intracellular growth (time point: T3 (3 h)) stood at 0.886 ± 0.064 and the normalized intracellular growth (time point: Tfinal (~6 h)) came out at 1.08 ± 0.19.
For `O=C(O)CSCC(=O)NC1CCSC1=O` (stereo not given) the same measures were 1.06 ± 0.043 and 0.876 ± 0.14.
On the same counts, the results for `NCC[C@H](O)C(=O)N[C@@H]1C[C@H](N)[C@@H](O[C@H]2O[C@H](CN)[C@@H](O)[C@H](O)[C@H]2O)[C@H](O)[C@H]1O[C@H]1O[C@H](CO)[C@@H](O)[C@H](N)[C@H]1O` are 0.99 ± 0.054 and 0.936 ± 0.045.
On to `Fc1ccc([C@@H]2CCNC[C@H]2COc2ccc3c(c2)OCO3)cc1`, for which the normalized intracellular growth by setting is: (time point: T3 (3 h)) 0.885 ± 0.052; (time point: Tfinal (~6 h)) 0.978 ± 0.25.
For `Nc1nc(O)c2ncn(CCC(CO)CO)c2n1`, the normalized intracellular growth (time point: T3 (3 h)) turned out to be 0.994 ± 0.012 and the normalized intracellular growth (time point: Tfinal (~6 h)) came out at 1.04 ± 0.062.
On the same counts, the results for `CN(C/C=C/C#CC(C)(C)C)Cc1cccc2ccccc12` are 1.01 ± 0.042 and 0.997 ± 0.057.
On the same counts, the results for `NCCC[C@H](N)CC(=O)N[C@H]1CNC(=O)[C@H]([C@H]2C[C@H](O)NC(N)=N2)NC(=O)/C(=C/NC(N)=O)NC(=O)[C@H](CO)NC(=O)[C@H](CO)NC1=O` are 1.01 ± 0.093 and 0.9882 ± 0.0043.
For `NC(CO)C(=O)NNCc1ccc(O)c(O)c1O` (stereo not given) the same measures were 1 ± 0.013 and 1.05 ± 0.023.
